# Source: article PMC8384837
# The other results are listed elsewhere or left out.
# Molecular target: T1, PUM1 PUF domain R6-SWD R7-NPG N1043S + Y1044W + Q1047D + S1079N + N1080P + E1083G (Homo sapiens) (UniProt Q14671)
# T1 sequence: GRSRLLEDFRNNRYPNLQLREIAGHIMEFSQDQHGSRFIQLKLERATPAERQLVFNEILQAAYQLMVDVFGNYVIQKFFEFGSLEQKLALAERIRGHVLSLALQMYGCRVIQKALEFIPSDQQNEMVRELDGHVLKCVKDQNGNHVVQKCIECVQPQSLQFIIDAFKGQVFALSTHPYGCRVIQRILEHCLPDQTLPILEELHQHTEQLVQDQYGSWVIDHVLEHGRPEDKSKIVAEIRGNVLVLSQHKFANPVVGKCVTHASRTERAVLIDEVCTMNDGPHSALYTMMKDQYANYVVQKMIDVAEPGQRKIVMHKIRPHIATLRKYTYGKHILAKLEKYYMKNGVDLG
# Details: yeast three-hybrid, YBZ-1, SC-Leu-His + 0.5 mM 3-AT, 4 days
row,Sequence,binding signal (log2 enrichment (interaction score))
1,GGCUAGAACUAGUGGAUCCCCCGGCGCCCGGCGGCUCGAGCCCGGGUAAGGUUAUUUAGUCUGCAUGCCGCCGGGCGCCAUGCCUGCAGGUCGACUCUAGAAAACAUG,-0.59
2,GGCUAGAACUAGUGGAUCCCCCGGCGCCCGGCGGCUCGAGCCCGGGUAAGAUUAAAUCGUCUGCAUGCCGCCGGGCGCCAUGCCUGCAGGUCGACUCUAGAAAACAUG,-1.45
3,GGCUAGAACUAGUGGAUCCCCCGGCGCCCGGCGGCUCGAGCCCGGGUAAGUGGUCGAAGUCUGCAUGCCGCCGGGCGCCAUGCCUGCAGGUCGACUCUAGAAAACAUG,-1.31
4,GGCUAGAACUAGUGGAUCCCCCGGCGCCCGGCGGCUCGAGCCCGGGUAAGUGGUAGCAGUCUGCAUGCCGCCGGGCGCCAUGCCUGCAGGUCGACUCUAGAAAACAUG,-0.87
5,GGCUAGAACUAGUGGAUCCCCCGGCGCCCGGCGGCUCGAGCCCGGGUAAGUUAACUAAGUCUGCAUGCCGCCGGGCGCCAUGCCUGCAGGUCGACUCUAGAAAACAUG,-0.77
6,GGCUAGAACUAGUGGAUCCCCCGGCGCCCGGCGGCUCGAGCCCGGGUAAGUUUUCUAAGUCUGCAUGCCGCCGGGCGCCAUGCCUGCAGGUCGACUCUAGAAAACAUG,-1.87
7,GGCUAGAACUAGUGGAUCCCCCGGCGCCCGGCGGCUCGAGCCCGGGUAAGUGGAGCACGUCUGCAUGCCGCCGGGCGCCAUGCCUGCAGGUCGACUCUAGAAAACAUG,-1.56
8,GGCUAGAACUAGUGGAUCCCCCGGCGCCCGGCGGCUCGAGCCCGGGUAAGAUGUUAAUGUCUGCAUGCCGCCGGGCGCCAUGCCUGCAGGUCGACUCUAGAAAACAUG,-1.66

# Random excerpt: 2 entries already listed, in no set order.
row,Sequence,binding signal (log2 enrichment (interaction score))
7,GGCUAGAACUAGUGGAUCCCCCGGCGCCCGGCGGCUCGAGCCCGGGUAAGUGGAGCACGUCUGCAUGCCGCCGGGCGCCAUGCCUGCAGGUCGACUCUAGAAAACAUG,-1.56
8,GGCUAGAACUAGUGGAUCCCCCGGCGCCCGGCGGCUCGAGCCCGGGUAAGAUGUUAAUGUCUGCAUGCCGCCGGGCGCCAUGCCUGCAGGUCGACUCUAGAAAACAUG,-1.66
